Source: the supplement of paper PMC11006884
The targets with a hit were mostly taken out for another list; the other results follow. This is a noisy data set. Only a part is listed here, and it is no random draw.

By UniProt entry, the sequences of proteins in these tests, tags left out. Where a name states a change or a piece, a line headed by the entry shows the natural chain unless it says otherwise.
UniProt O15067: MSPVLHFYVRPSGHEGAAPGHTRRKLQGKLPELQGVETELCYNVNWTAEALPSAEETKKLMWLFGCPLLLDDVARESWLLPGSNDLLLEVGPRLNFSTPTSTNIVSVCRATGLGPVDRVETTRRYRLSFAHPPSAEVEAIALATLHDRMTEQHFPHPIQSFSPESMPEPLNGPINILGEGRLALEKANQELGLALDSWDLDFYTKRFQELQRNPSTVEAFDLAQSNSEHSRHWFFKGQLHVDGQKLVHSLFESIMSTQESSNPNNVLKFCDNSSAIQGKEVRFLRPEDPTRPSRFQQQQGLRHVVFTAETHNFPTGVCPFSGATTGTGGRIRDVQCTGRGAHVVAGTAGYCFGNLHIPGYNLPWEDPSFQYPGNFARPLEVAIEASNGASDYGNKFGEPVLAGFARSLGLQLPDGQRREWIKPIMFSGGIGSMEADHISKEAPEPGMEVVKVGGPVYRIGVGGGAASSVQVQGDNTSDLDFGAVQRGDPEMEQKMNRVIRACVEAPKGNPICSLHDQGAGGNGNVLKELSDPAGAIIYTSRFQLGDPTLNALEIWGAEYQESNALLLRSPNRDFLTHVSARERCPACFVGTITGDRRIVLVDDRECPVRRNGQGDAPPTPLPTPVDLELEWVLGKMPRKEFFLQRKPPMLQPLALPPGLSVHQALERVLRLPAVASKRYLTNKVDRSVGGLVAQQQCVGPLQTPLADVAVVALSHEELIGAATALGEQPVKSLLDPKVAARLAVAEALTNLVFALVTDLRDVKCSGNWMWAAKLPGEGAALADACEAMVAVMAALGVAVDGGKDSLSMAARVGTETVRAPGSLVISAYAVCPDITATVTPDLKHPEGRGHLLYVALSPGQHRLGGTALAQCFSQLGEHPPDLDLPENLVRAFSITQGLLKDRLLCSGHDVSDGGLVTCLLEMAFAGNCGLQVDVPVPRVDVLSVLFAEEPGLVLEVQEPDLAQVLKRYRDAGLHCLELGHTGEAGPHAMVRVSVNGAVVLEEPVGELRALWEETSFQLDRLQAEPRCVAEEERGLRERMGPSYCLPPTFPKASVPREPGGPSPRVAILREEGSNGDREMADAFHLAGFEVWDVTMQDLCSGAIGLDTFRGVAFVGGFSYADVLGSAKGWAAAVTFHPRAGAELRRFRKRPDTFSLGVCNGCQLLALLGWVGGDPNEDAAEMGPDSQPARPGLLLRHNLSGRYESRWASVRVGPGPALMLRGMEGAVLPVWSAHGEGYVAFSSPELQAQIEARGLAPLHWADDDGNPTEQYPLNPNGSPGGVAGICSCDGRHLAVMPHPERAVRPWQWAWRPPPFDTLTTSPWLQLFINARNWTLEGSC
UniProt O00442: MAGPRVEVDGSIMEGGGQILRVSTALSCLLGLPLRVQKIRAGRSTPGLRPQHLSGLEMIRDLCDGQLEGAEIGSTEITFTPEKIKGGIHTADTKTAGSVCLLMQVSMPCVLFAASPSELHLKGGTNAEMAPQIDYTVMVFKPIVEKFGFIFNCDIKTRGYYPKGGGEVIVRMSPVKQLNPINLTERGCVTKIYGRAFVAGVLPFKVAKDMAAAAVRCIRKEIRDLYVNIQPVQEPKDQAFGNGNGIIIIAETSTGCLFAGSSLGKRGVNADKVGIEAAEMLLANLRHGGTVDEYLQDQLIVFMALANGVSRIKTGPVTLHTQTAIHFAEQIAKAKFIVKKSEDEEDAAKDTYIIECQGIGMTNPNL
UniProt O14497, whole entry, looked up: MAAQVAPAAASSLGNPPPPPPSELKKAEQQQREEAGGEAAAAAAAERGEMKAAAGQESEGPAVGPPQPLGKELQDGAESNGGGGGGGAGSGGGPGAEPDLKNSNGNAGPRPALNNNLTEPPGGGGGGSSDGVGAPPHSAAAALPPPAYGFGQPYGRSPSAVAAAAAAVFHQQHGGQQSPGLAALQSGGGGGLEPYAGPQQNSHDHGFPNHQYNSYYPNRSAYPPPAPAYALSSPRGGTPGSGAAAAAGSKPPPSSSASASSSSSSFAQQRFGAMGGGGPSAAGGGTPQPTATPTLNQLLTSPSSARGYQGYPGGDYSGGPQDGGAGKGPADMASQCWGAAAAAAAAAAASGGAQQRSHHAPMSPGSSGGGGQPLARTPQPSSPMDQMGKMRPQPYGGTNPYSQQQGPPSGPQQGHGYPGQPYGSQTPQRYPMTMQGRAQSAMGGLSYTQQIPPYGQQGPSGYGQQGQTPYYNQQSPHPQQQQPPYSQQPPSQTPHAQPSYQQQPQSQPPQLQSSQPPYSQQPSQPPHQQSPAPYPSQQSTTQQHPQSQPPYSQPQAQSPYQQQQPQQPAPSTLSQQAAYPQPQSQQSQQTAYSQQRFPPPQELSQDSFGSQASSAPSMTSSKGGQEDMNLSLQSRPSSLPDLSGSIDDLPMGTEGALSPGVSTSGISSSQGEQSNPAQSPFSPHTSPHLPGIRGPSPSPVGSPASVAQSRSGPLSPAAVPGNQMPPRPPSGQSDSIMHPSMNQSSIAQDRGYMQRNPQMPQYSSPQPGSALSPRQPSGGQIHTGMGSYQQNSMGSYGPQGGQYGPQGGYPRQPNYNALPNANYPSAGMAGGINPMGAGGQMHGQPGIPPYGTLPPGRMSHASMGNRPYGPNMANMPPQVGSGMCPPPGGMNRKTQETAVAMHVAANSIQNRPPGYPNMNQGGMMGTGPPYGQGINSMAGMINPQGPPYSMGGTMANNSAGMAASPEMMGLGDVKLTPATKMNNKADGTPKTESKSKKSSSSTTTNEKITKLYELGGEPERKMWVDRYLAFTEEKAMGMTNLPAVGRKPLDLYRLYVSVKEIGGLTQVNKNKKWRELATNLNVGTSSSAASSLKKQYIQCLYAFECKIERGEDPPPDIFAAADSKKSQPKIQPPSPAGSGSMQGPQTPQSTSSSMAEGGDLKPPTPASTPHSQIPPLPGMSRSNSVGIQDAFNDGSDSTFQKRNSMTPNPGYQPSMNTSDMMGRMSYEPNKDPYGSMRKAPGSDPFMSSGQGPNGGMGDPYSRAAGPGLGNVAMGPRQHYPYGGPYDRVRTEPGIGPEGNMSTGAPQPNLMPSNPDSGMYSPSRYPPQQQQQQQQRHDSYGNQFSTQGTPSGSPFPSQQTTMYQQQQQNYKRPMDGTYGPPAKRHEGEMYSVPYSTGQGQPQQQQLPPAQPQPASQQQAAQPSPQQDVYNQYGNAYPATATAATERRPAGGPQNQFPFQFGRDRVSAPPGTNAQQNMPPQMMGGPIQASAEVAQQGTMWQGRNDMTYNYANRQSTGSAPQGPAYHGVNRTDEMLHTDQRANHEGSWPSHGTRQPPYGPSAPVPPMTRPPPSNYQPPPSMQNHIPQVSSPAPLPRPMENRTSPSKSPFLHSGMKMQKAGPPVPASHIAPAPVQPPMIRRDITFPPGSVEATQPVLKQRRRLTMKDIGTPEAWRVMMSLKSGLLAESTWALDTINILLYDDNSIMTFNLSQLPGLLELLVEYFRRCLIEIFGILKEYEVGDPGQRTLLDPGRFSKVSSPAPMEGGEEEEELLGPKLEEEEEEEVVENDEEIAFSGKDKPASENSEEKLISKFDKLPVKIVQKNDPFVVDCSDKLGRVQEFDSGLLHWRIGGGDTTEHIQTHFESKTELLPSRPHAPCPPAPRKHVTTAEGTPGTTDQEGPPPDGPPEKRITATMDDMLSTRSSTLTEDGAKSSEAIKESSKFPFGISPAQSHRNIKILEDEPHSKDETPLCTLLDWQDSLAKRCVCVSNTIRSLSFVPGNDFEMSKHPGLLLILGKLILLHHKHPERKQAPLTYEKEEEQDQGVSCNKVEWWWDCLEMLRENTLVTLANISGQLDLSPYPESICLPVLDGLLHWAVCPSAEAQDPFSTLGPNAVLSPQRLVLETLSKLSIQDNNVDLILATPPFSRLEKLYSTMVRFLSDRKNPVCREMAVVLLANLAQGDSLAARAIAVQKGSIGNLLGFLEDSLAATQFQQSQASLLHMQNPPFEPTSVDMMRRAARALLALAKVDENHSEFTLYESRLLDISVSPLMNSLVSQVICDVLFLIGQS
UniProt O43143: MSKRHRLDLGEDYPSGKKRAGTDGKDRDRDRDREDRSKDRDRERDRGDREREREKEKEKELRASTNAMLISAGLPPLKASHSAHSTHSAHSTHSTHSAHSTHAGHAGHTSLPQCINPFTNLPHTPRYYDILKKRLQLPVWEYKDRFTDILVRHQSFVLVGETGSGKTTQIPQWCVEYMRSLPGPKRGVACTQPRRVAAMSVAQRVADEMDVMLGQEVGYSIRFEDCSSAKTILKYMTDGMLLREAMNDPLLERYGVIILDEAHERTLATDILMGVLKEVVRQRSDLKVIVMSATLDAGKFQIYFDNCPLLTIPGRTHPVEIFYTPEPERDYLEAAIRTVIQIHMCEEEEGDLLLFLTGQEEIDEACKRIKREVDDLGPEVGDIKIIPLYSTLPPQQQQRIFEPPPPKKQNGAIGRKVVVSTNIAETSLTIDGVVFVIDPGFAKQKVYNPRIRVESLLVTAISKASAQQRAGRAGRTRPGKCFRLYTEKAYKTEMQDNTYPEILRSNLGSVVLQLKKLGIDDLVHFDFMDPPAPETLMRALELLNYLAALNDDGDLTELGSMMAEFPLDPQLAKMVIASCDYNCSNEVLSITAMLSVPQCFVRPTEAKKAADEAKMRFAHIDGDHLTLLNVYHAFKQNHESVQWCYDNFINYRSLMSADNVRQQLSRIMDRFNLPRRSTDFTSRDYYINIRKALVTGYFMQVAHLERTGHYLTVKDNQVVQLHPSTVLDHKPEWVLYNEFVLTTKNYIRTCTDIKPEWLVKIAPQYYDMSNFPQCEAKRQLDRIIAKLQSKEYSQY
UniProt O14654: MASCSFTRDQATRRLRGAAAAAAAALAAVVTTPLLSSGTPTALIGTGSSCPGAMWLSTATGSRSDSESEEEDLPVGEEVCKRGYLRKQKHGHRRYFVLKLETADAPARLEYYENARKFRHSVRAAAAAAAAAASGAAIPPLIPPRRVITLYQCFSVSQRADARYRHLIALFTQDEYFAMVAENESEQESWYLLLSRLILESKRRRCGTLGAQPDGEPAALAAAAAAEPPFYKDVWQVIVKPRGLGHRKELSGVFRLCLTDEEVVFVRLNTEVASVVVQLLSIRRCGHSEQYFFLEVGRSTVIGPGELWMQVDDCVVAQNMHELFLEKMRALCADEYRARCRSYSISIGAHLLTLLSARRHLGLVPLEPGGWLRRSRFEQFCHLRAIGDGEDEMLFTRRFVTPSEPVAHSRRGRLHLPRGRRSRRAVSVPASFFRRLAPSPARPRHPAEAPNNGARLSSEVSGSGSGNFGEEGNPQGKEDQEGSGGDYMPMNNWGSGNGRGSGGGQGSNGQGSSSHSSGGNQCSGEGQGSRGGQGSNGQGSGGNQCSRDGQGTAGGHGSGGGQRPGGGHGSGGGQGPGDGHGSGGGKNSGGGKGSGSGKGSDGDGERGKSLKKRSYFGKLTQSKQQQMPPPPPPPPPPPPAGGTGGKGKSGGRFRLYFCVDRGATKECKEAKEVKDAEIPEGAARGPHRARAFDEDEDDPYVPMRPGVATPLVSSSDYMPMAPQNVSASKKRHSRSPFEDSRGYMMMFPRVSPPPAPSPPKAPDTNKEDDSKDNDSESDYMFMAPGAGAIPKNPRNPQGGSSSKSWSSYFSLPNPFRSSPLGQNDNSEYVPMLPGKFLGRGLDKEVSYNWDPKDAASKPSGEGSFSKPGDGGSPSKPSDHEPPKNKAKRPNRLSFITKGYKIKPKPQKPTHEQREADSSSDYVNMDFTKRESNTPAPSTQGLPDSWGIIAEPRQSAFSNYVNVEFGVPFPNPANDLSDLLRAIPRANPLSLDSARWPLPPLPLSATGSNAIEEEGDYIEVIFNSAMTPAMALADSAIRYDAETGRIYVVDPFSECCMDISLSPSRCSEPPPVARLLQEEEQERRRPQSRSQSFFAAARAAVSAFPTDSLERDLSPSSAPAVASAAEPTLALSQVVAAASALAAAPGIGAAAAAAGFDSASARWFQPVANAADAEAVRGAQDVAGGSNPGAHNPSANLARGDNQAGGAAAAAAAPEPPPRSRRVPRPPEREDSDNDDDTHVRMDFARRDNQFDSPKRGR
UniProt O15355: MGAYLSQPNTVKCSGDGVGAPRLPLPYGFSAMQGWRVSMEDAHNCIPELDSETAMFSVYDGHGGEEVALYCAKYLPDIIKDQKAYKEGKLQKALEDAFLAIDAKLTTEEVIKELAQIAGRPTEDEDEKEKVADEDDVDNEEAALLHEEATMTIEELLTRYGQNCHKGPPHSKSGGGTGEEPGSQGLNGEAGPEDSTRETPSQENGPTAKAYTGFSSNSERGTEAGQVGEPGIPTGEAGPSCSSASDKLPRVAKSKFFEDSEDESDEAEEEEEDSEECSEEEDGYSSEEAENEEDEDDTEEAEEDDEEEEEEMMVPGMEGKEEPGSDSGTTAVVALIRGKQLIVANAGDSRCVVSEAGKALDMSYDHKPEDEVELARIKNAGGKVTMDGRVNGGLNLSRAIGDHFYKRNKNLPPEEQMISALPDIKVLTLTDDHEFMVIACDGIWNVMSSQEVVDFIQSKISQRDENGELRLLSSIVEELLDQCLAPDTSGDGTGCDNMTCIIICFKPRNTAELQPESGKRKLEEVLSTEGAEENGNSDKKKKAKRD

These targets were tested with COC(=O)/C=C/c1ccccc1 [methyl cinnamate] (assay: log2 ratio of iodoacetamide-alkyne labeling of the cysteine site, DMSO over compound (competition); higher = stronger covalent engagement of the cysteine by the compound, active = 1 or more). Conditions: 500 µM; treatment time 1 h; system: HEK293T cell lysate.
Procedure, shortened: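 Electrophile (500 µM) or vehicle was added to HEK293T lysate (2 mg/mL) for 1 h at ambient temperature before iodoacetamide alkyne labelling (1 h) and click coupling to sCIP-TMT reagents. After pooling, overnight trypsin digestion at 37 °C, streptavidin enrichment and acid elution, peptides were measured by Orbitrap Eclipse LC-MS/MS with FAIMS and quantified in FragPipe. Each cysteine's log2 competition ratio compares mean control-channel with mean compound-channel reporter intensity, control over compound. Data came from duplicate channels across three replicates, excluding cysteines quantified in only one replicate.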

log2 ratio of iodoacetamide-alkyne labeling, inactive:
PFAS C318 (UniProt O15067) -0.245
MPHOSPH10 C27 (UniProt O00566) 0.145
UniProt O00442_C100 0.234
ARID1A C1874 (UniProt O14497) 0.182
NVL C359 (UniProt O15381) -0.198
DHX15 C174 (UniProt O43143) -0.12
AP3D1 C208 (UniProt O14617) -0.0511
IRS4 C257 (UniProt O14654) -0.00739
TRIM24 C81 (UniProt O15164) 0.00813
CASK C633 (UniProt O14936) 0.248
GTPBP1 C46 (UniProt O00178) 0.196
PPM1G C164 (UniProt O15355) 0.359
UniProt O00148_C164 0.189
EXOC5 C675 (UniProt O00471) 0.257
PFAS C1285 (UniProt O15067) 0.292
IRS4 C314 (UniProt O14654) -0.0963
ITGB1BP1 C60 (UniProt O14713) 0.456

For convenience, part of the list above.
log2 ratio of iodoacetamide-alkyne labeling, inactive:
PFAS C318 (UniProt O15067) -0.245
MPHOSPH10 C27 (UniProt O00566) 0.145
